Experimental data as given in paper PMC6371491.

The chains behind the UniProt entries cited, without tags or fusion partners.
UniProt P60842: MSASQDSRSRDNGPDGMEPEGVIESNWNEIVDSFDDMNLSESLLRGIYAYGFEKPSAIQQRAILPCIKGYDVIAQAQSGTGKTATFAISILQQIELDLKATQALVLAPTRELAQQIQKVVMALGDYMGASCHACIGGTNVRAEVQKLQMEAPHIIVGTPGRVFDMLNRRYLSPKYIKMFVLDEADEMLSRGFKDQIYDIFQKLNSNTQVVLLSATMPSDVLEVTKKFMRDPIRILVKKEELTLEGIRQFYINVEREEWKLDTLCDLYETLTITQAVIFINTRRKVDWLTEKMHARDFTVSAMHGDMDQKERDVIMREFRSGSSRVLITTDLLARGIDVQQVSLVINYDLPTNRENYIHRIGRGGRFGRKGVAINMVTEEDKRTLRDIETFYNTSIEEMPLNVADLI

Target: T1, Phosphoglycerate dehydrogenase (PHGDH), endogenous (human (endogenous in PANC-1 and AsPC-1)) (UniProt O43175)
T1 sequence: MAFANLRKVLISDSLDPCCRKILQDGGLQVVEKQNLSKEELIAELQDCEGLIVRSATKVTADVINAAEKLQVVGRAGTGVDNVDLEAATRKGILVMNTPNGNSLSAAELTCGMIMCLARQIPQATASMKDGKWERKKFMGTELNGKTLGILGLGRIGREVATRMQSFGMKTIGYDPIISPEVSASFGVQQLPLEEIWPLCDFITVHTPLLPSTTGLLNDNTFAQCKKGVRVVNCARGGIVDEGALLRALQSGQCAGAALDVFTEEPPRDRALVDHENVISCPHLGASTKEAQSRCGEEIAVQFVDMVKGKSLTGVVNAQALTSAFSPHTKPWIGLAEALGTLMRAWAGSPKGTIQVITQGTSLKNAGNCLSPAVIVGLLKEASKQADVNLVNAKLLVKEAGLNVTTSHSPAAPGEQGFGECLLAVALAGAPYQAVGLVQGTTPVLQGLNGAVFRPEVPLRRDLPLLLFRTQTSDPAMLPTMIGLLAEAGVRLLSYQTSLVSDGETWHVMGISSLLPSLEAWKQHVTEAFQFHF
Assay: affinity purification with mass spectrometry; co-immunoprecipitation of PHGDH and mass spectrometry of the precipitate; details in Figure S4A, B and Table S1

Question: For “eukaryotic translation initiation factor 4A1 (eIF4A1), endogenous (from UniProt P60842 1-406)”, which binding is on record?
Answer: binds

These are yes or no findings as the source states them, for the method shown. In cells and extracts the contact can be indirect. Here binding means that the protein was enriched with, or labelled near, the bait; the list need not be complete.
